# In PubChem BioAssay AID2685 (National Center for Advancing Translational Sciences (NCATS), 2010):
# About 2,100 (0.66%) of roughly 320,000 compounds were called active. The inconclusive results got no clear call from the source; some entries with a clear call stand among them for comparison. The call rests on the fitted dose curve; in most records, active means well fitted inhibition curve with a large enough effect in the signal ratio, with a control signal flat (not every such curve was filed as active); inconclusive means small, poorly fitted or top-dose-only effect, or effect the other way, or a change in a side signal; inactive means flat fitted curve, though single readings scatter; the % refers to the signal ratio. A potency beside an inconclusive call is a rough fit, not a confirmed value.
# Experiment: qHTS Assay for Lipid Storage Modulators in Drosophila S3 Cells
# Settings: BODIPY lipid droplet fluorescence, 18-24 h, cells fed with added oleic acid; lipid storage change, negative = inhibition: at 46.1 µM (top of the series) unless noted
# How it was run: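 Drosophila S3 cells got compounds at several concentrations plus oleic acid (400 uM solution). Laser-scanning cytometry with 488 nm excitation read lipid droplets at 500-530 nm and cells at 575-640 nm. Percent activity was relative to 20 uM Triacsin C.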
# On the % scale 0 is the no-effect control and ±100 the full control effect; potency means the concentration at half of the fitted maximal effect.
Compound,Potency,"lipid storage change, negative = inhibition",outcome
Cc1cccc(OCCCN2CCOCC2)c1C,"inconclusive: 29.1 µM [activator, single point]",–,–
OC(COC(c1ccccc1)c1ccccc1)CN1CCN(c2ccccn2)CC1 (centres undefined),"inconclusive: 14.6 µM [activator, single point]",–,–
NC(=O)C1CCCN(C(=O)CCCNC(=O)c2ccc(Cl)cc2)C1 (centres undefined),–,inconclusive: 23%,–
O=C(Nc1nc2ccccc2n1CCN1CCOCC1)c1ccc(Cn2cc([N+](=O)[O-])cn2)o1,"inconclusive: 25.1 µM [falling, single point]",–,–
NS(=O)(=O)c1ccc(CCNc2cc(=O)n(Cc3ccc(F)cc3)c(=O)[nH]2)cc1,–,inconclusive: 6.11%,–
COc1ccc(/C=N/NC(=O)c2ccc(F)cc2)cc1CN1CCc2cc(OC)c(OC)cc2C1C (centres undefined),–,inconclusive: -16.8%,–
O=C(CCN1C(=O)/C(=C/c2ccccc2Cl)SC1=S)N1CCOCC1,–,inconclusive: -43.5%,–
COc1ccc(OC)c(S(=O)(=O)N2Cc3ccccc3CC2C(=O)Nc2nccs2)c1 (centres undefined),"inconclusive: 2.06 µM [activator, partial curve]",–,–
CCOc1ccccc1NC(=O)CN1CCC(C(=O)c2ccc(OC)cc2)CC1,"inconclusive: 1.03 µM [falling, full curve, poor fit]",–,–
CN1/C(=C\P(=O)(N(C)C)N(C)C)C(C)(C)c2ccccc21,"inconclusive: 29.1 µM [falling, single point]",–,–
Cc1cc(O)c(C(C)C)cc1NC(=O)c1cccc(Cl)c1,"inconclusive: 8.2 µM [falling, partial curve]",–,–
CC(=O)OCC(=O)[C@@]1(O)CC[C@H]2[C@@H]3CCC4=CC(=O)C=C[C@]4(C)[C@@]3(Cl)[C@@H](Cl)C[C@@]21C,–,inconclusive: -18.1%,–
CCOC(=O)c1c(C)[nH]c(C)c1C(=O)COc1ncnc2cc([N+](=O)[O-])ccc12,"inconclusive: 1.16 µM [rising, full curve]",–,–
COc1cc(/C=C2\SC(=O)N(Cc3ccc(Cl)cc3)C2=O)cc([N+](=O)[O-])c1O,–,inconclusive: -13.3%,–
CCCCNc1c([N+](=O)[O-])cc(C)cc1[N+](=O)[O-],"inconclusive: 23.1 µM [falling, single point]",–,–
N#Cc1cc(NC(=O)c2ccc(F)cc2)c(=O)n2c1[nH]c1ccccc12,–,inconclusive: -47.2%,–
Cc1ccc(C)c2[nH]c(=O)c(CCNC(=O)CC(C)(C)C)cc12,–,inconclusive: 23.6%,–
COc1ccc(OC(C)c2nnc(N)s2)cc1 (centres undefined),–,inconclusive: 7.98%,–
Cc1cc(C(=O)CN2C(=O)NC3(CCCC3)C2=O)c(C)n1-c1ccc2c(c1)OCO2,–,inconclusive: 12.6%,–
O=c1[nH]c2ccccc2nc1/C=C(\O)C1CC1,–,inconclusive: 8.22%,–
S=C(Nc1ccc(Cl)cc1Cl)N1CCCCC1,"inconclusive: 0.651 µM [falling, partial curve, poor fit]",–,–
CCc1cc(=O)oc2cc(OCC(=O)N3CCC[C@H]3C(=O)O)ccc12,"inconclusive: 0.0052 µM [activator, full curve, poor fit]",–,–
CCN1C(=O)/C(=C2\SC(N3CCOCC3)=NC2=O)c2ccccc21,–,inconclusive: 299%,–
CCCn1c(N2CCN(CC(=O)c3c(C)n(C)c4ccccc34)CC2)nc2c1c(=O)[nH]c(=O)n2C,"inconclusive: 4.11 µM [activator, full curve, poor fit]",–,–
Cc1nn(Cc2c(F)cccc2Cl)c(C)c1[N+](=O)[O-],–,inconclusive: -2.77%,–

Compound,Potency,"lipid storage change, negative = inhibition",outcome
Cc1ccc(S(=O)(=O)NCCC(=O)Nc2ccc3c(c2)OCO3)cc1,"inconclusive: 5.8 µM [activator, single point]",–,–
N#Cc1ccc(NC(=O)Cn2c3[n+](c4ccc(C(F)(F)F)cc42)CCCCC3)cc1,–,inconclusive: -26.9%,–
COc1ccc(/C=N/NC(=O)CCn2cnc(-c3ccccc3)c2-c2ccccc2)cc1OC,"inconclusive: 0.0046 µM [rising, full curve, poor fit]",–,–
O=C(CCc1nc2ccccc2c(=O)[nH]1)NNC(=O)COc1ccccc1Cl,–,inconclusive: 13.1%,–
COc1ccc(C2(C)NC(=O)N(CC(=O)Nc3ccc4[nH]c(=O)[nH]c4c3)C2=O)cc1 (centres undefined),–,inconclusive,–
CC(=O)Oc1cc(OC(C)=O)c2c(C)cc(=O)oc2c1,–,inconclusive: 38.4%,–
COc1ccc2[nH]c(C)c(CCNC(=S)Nc3cccc(C)c3)c2c1,"inconclusive: 1.84 µM [activator, partial curve, poor fit]",–,–
Cc1ccc(NC(=O)c2ccc(NS(=O)(=O)c3cccc4cccnc34)cc2)cc1,–,inconclusive: 25.3%,–
Cc1ccc(C(=O)Nc2nnc(C3=COCCO3)o2)cc1C,–,inconclusive: -56.5%,–
CCOc1cc(C(C(=O)NCC2CCCO2)N(C(=O)Cn2nnc3ccccc32)c2ccccc2C)ccc1O (centres undefined),–,inconclusive: -99%,–
CC(C)N(C(=S)Nc1cccnc1)c1ccccc1,–,inconclusive: 16.8%,–
Cc1cc(C)nc(-n2nc(C)cc2NC(=O)c2cccc(S(=O)(=O)N3CCCCC3)c2)n1,–,inconclusive: 28.7%,–
O=C(O)c1cc(Cl)c(Cl)cc1C(=O)Nc1cccnc1,–,inconclusive: -13%,–
CCN(CC(=O)Nc1c(F)cccc1F)C(=O)CCc1nc2ccccc2c(=O)[nH]1,–,inconclusive,–
CCC(C)(C)n1nnnc1C(c1cccc(C#N)c1)N1CCN(c2cc(C)ccc2C)CC1 (centres undefined),–,inconclusive: -2.92%,–
COc1ccc(C2=NO[C@@H]3C(=O)N(Cc4ccccc4)C(=O)[C@H]23)c(OC)c1,"inconclusive: 0.092 µM [activator, full curve, poor fit]",–,–
COc1ccc(-n2c(Cn3c(=O)sc4ccccc43)nnc2SCC(=O)N2CCCC2)cc1,–,inconclusive: -0.239%,–
CCn1nc(NC(C)=O)c2cc3ccc(C)cc3nc21,–,inconclusive: 13.6%,–
CSc1sc(C(=O)NNC(C)=O)c2c1C=CCC2,–,inconclusive: -32.9%,–
O=C1C=C(NCc2ccco2)C2(CCCCC2)O1,"inconclusive: 7.31 µM [falling, single point]",–,–
Cc1cc(C(=O)CSc2n[nH]c(N)n2)c(C)n1-c1cc(F)ccc1F,–,inconclusive: 23.7%,–
CCN(CC(=O)Nc1c(F)cccc1F)C(=O)CCSc1ccc(F)cc1,–,inconclusive,–
COc1ccc2c(c1)c1nc(SCC(C)C)n(CCO)c(=O)c1n2C,–,inconclusive: -39.1%,–
O=C(CN(C(=O)c1csnn1)c1ccc(F)c(Cl)c1)NCc1ccccc1,"inconclusive: 0.58 µM [falling, single point]",–,–
CC(=O)N/C(=C\c1ccccc1)C(=O)OC/C=C/c1ccccc1,–,inconclusive: 95.4%,–

# Another view of two compounds above:
Compound	Potency	lipid storage change, negative = inhibition	outcome
COc1ccc(/C=N/NC(=O)CCn2cnc(-c3ccccc3)c2-c2ccccc2)cc1OC	inconclusive: 0.0046 µM [rising, full curve, poor fit]	–	–
O=C(CCc1nc2ccccc2c(=O)[nH]1)NNC(=O)COc1ccccc1Cl	–	inconclusive: 13.1%	–

# More entries follow:

Compound,Potency,"lipid storage change, negative = inhibition",outcome
O=C1/C(=C\c2c(NCCOCCO)nc3ccccn3c2=O)SC(=S)N1Cc1ccco1,–,inconclusive: -0.289%,–
Clc1ccc(OCc2nc3ccccc3[nH]2)cc1,–,inconclusive: 19.9%,–
CC(C)Cn1c2c(c(O)c(C(=O)Nc3nccs3)c1=O)CCCC2,–,inconclusive: 13.2%,–
CN(C(=O)CC1C(=O)NCCN1Cc1ccc(F)cc1Cl)C1CCCCC1 (centres undefined),–,inconclusive: -100%,–
CC(=O)c1ccc(S(=O)(=O)N(CCCO)Cc2cc3cc4c(cc3[nH]c2=O)OCCO4)cc1,–,inconclusive: 38.2%,–
COc1ccc(C(=O)NCC2CCCO2)cc1OC (centres undefined),–,inconclusive: -14%,–
Cc1nn(CC2CC2)c(=O)n1-c1cccc(Cl)c1,–,inconclusive: -3.53%,–
O=C(NCc1n[nH]c(=S)n1-c1cccc(Cl)c1)c1ccc(S(=O)(=O)N2CCCC2)cc1,–,inconclusive: -26.1%,–
CCOC(=O)C1=C(c2ccccc2)OC(N)=C(C#N)C1c1ccc(Br)s1 (centres undefined),"inconclusive: 29.1 µM [falling, single point]",–,–
Cc1nc(N2CCN(Cc3ccc4c(c3)OCO4)CC2)nc2c1C(=O)CC(c1ccco1)C2 (centres undefined),–,inconclusive: 26.9%,–
O=C(O)CNS(=O)(=O)c1ccc2c3c(cccc13)C(=O)N2,"inconclusive: 29.1 µM [activator, single point]",–,–
COc1ccccc1N(CC(=O)NCc1ccc(F)cc1)C(=O)CCC(=O)Nc1nccs1,–,–,inactive [at 46.1 µM]
COc1ccc(N2CCOCC2)c(NC(=O)COc2cccc(C)c2)c1,"inconclusive: 6.51 µM [falling, single point]",–,–
Cc1ccc(S(=O)(=O)N(C)CC(=O)NC2CCCC2)cc1,–,inconclusive: -42.6%,–
O=C(CC1Sc2ncnn2C1=O)Nc1ccc(Cl)cc1 (centres undefined),"inconclusive: 3.26 µM [rising, single point]",–,–
COc1ccccc1CNC(=O)c1ccccc1OCc1ccc(F)cc1,"inconclusive: 16.4 µM [activator, partial curve, poor fit]",–,–
Cc1ccc(-c2ccc(/C=N/n3cnnc3)o2)cc1,–,inactive: 5.91%,–
COc1ccccc1C(=O)Nc1ccc(NC(=O)C2CCCCC2)nc1,–,inconclusive: -69%,–
Cc1c(-c2ccccc2)oc2c(C(=O)OCC(=O)Nc3cccc(F)c3)cccc2c1=O,–,inconclusive: 14.1%,–
COc1ccccc1OCC(=O)Nc1ccc(S(=O)(=O)NC(C)=O)cc1,–,inconclusive: -40.1%,–
Cc1ccc(CNC(=O)CS(=O)(=O)Cc2nc(-c3ccccc3F)oc2C)cc1,–,inconclusive: -30%,–
O=C1CC(C(=O)O)(c2ccccc2)c2cccc(F)c21 (centres undefined),"inconclusive: 29.1 µM [rising, single point]",–,–
Cc1ccc(C(=O)N[C@H](C(=O)OCC(=O)c2ccc[nH]2)C(C)C)cc1,–,inconclusive: 2.44%,–
COCc1cccc(NC(=O)CCc2ccccc2)c1,–,inconclusive: -2.02%,–

# An excerpt from above with just lipid storage change, negative = inhibition:
Compound | lipid storage change, negative = inhibition
COc1ccc(C(=O)NCC2CCCO2)cc1OC (centres undefined) | inconclusive: -14%
Cc1nn(CC2CC2)c(=O)n1-c1cccc(Cl)c1 | inconclusive: -3.53%
O=C(NCc1n[nH]c(=S)n1-c1cccc(Cl)c1)c1ccc(S(=O)(=O)N2CCCC2)cc1 | inconclusive: -26.1%
